Binding data for 5 substances are collected here from PMC3524233.

Sequences of proteins named here, by UniProt entry; tags and fusion partners are left off. A change or cut given only in a name is not applied to a line headed by its entry. A line that says so, or that is headed by a name, gives the form on record, which may keep a tag or linker. Residues count along the entry.
FLAG-tagged RAGE (WT) (Q15109, residues 23-404): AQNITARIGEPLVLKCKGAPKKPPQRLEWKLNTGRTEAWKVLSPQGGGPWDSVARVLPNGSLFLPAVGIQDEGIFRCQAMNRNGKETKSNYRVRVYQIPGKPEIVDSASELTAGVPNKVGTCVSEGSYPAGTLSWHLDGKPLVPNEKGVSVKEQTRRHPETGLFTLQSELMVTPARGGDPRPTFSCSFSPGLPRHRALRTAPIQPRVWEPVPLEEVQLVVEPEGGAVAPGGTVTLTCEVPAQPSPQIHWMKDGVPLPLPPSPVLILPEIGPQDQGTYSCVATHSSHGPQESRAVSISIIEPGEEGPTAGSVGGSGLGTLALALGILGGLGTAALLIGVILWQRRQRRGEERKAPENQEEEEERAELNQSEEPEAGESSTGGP
RAGE(C301S) (Q15109, form named): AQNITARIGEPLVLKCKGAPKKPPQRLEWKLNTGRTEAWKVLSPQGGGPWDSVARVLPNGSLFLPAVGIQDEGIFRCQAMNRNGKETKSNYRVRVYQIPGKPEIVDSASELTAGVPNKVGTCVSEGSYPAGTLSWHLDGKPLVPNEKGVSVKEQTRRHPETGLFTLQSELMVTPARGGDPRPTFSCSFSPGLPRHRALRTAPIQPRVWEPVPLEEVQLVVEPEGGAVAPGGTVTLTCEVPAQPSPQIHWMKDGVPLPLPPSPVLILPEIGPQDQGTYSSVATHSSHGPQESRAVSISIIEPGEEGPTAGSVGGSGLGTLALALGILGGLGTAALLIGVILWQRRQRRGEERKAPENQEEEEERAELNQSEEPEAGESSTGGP
s10-RAGE(C259S/C301S)-FLAG (Q15109, form named): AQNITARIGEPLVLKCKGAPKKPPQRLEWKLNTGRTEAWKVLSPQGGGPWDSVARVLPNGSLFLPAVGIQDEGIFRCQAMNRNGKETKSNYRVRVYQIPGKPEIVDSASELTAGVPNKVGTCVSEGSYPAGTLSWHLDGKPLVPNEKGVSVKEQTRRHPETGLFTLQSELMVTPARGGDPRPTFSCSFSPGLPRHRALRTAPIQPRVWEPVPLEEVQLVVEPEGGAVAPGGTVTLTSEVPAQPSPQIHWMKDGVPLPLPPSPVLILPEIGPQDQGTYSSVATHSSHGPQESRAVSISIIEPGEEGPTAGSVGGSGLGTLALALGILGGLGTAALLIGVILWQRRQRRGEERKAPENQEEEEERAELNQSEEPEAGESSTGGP
RAGE(C259S) (Q15109, form named): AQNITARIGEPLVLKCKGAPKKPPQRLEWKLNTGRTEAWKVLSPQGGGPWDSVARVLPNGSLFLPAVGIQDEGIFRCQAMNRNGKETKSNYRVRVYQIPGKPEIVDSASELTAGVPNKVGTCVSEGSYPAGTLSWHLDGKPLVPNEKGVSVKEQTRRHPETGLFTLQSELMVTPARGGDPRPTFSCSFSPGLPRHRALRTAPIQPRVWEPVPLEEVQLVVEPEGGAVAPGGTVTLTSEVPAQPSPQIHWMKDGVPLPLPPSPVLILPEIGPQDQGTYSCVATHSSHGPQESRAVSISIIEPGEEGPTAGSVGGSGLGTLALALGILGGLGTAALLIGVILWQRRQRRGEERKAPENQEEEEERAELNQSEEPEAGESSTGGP

One assay deals with s10-RAGE(WT)-FLAG (UniProt Q15109). In words: split reporter; tripartite split GFP complementation in the ER: s10- and s11-tagged proteins co-transfected with signalpep-GFPs1-9 in CHO-CD14 (and HeLa) cells; fluorescence and confocal microscopy, flow cytometry. In general terms: A flow cytometer gives signals particle by particle.
A further assay addresses RAGE(C301S) (UniProt Q15109). The experiment in a line: non-reducing SDS-PAGE with immunoblot; membrane extracts of transfected CHO-CD14 cells; DTT omitted from the loading buffer, 2% LDS, 80°C for 10 min, NuPAGE 4-12% Bis-Tris gel. (In general: Immunoblotting shows a protein as a band on a membrane.)
The target of assay [1] is FLAG-tagged RAGE (WT) (UniProt Q15109). The experiment in a line: cross-linking; membrane fraction of FLAG-RAGE-transfected CHO-CD14 cells (or the cultured cells directly) cross-linked with BS3, PBS pH 8.0, room temperature, 30 min; SDS-PAGE and IB.
For assay [2] the target is unchanged. In words: co-IP; FLAG-tagged RAGE transfected transiently into CHO-CD14 cells stably transfected with T7-tagged RAGE; unfractionated membrane extracts; IP with anti-FLAG, IB with anti-T7.
Assay [3] has the same target. In words: non-reducing SDS-PAGE with immunoblot; membrane extracts of transfected CHO-CD14 cells; DTT omitted from the loading buffer, 2% LDS, 80°C for 10 min, NuPAGE 4-12% Bis-Tris gel.
The target is the same in assay [4]. In words: non-reducing SDS-PAGE with immunoblot; the same study in transfected HeLa cells (Figure S1).
Assay [5] has as its target s10-RAGE(C259S/C301S)-FLAG (UniProt Q15109). The experiment in a line: split reporter; tripartite split GFP complementation in the ER: s10- and s11-tagged proteins co-transfected with signalpep-GFPs1-9 in CHO-CD14 (and HeLa) cells; fluorescence and confocal microscopy, flow cytometry.
A further assay addresses RAGE(C259S) (UniProt Q15109). In words: non-reducing SDS-PAGE with immunoblot; membrane extracts of transfected CHO-CD14 cells; DTT omitted from the loading buffer, 2% LDS, 80°C for 10 min, NuPAGE 4-12% Bis-Tris gel.

No constants are given. Whether binding was seen depends on the method and setting. For some assays here: Binding seen in cells or lysates may run through a third protein. Some entries that bind do so weakly or less than the wild type.

Turning to “s10-RAGE(WT)-FLAG (from UniProt Q15109 23-404) (receptor)”, in the assay with s10-RAGE(WT)-FLAG, the binding entry is “binds”.
For the substance “RAGE(C301S) (from UniProt Q15109 23-404) (receptor)”, in the assay with RAGE(C301S), the binding entry was “binds”.
As for “FLAG-tagged RAGE (WT) (from UniProt Q15109 23-404) (receptor)”, the binding result with FLAG-tagged RAGE (WT) [1], with FLAG-tagged RAGE (WT) [2], with FLAG-tagged RAGE (WT) [3] and with FLAG-tagged RAGE (WT) [4] was “binds” in each case.
As to “s10-RAGE(C259S/C301S)-FLAG (from UniProt Q15109 23-404) (receptor)”, the binding result in assay [5] is reported as “binds”.
As to “RAGE(C259S) (from UniProt Q15109 23-404) (receptor)”, the binding entry with RAGE(C259S) is given as “binds”.
